Results are given in words; binding and its absence hold for the method and conditions named. In cells and extracts the contact can be indirect. Some binding calls cover weakened binding; strength is not graded here. For some assays here: Tags and fused reporters may be left off the sequences shown.
Legend:
YFP-Tuba = YFP-Tuba (UniProt Q6XZF7); test: co-IP; YFP-Tuba captured on agarose beads coupled to GFP-binding protein (GBP) from cleared lysate of transfected HEK293T cells, 1 h at 4°C; 1% Nonidet P-40 substitute, 10% glycerol, 50 mM Tris-HCl pH 7.4, 2.0 mM MgCl2, 200 mM NaCl; V5-Par6A (WT or mutant), HA-Cdc42(G12V) and YFP-Tuba co-expressed
V5-Par6A (wild type) = molecular target: T1, V5-Par6A (wild type) (UniProt Q9NPB6); test: as above
T1 sequence: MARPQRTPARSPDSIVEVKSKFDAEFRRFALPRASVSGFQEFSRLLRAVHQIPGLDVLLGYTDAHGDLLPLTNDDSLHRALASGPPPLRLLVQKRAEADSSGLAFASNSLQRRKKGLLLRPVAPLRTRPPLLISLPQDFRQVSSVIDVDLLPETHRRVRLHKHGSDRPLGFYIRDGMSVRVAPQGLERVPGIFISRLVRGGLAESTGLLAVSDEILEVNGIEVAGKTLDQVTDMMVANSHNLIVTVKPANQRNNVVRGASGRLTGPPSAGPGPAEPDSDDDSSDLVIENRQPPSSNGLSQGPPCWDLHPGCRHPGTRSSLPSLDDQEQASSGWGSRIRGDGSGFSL

Sequences of proteins named here, by UniProt entry; tags and fusion partners are left off. A change or cut given only in a name is not applied to a line headed by its entry.
UniProt Q6XZF7: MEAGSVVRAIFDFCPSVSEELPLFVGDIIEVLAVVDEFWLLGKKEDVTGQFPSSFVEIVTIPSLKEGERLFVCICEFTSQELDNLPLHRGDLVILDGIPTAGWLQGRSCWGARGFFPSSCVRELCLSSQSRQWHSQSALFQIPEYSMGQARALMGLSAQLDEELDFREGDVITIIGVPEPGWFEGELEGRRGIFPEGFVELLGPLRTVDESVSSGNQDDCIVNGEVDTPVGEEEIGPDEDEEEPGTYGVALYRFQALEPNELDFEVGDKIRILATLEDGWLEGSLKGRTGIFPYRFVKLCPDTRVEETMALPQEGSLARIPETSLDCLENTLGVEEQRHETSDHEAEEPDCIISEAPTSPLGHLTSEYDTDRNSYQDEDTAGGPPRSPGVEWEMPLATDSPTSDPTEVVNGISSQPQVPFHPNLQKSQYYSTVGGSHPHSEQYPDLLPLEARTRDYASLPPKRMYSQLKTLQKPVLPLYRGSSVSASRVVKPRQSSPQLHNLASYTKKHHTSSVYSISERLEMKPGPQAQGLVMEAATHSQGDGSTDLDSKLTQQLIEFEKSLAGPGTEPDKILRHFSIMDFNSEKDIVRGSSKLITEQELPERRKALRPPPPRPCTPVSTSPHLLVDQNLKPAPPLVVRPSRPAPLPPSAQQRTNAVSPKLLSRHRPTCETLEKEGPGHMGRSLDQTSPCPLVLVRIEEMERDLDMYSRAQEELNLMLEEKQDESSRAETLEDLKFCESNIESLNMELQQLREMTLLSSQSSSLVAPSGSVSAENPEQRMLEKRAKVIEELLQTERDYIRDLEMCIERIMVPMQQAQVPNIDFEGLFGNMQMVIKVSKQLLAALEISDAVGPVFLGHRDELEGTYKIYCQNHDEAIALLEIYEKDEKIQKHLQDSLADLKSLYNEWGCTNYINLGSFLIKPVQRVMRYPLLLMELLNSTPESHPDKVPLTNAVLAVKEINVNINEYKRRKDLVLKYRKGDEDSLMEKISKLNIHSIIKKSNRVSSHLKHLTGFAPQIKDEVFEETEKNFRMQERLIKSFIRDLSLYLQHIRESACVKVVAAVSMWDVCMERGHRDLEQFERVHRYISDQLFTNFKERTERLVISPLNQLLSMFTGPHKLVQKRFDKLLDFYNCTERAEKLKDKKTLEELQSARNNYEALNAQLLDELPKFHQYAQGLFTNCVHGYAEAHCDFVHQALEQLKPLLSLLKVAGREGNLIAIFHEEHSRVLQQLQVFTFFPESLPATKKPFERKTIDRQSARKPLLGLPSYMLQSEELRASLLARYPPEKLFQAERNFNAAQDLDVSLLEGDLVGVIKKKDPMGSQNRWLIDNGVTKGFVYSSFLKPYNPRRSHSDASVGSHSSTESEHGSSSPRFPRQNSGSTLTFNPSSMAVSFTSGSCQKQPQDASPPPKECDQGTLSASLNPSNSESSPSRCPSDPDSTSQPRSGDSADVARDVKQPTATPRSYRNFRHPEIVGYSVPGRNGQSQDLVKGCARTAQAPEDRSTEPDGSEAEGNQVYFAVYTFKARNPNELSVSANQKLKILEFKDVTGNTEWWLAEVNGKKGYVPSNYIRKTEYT
UniProt P60953: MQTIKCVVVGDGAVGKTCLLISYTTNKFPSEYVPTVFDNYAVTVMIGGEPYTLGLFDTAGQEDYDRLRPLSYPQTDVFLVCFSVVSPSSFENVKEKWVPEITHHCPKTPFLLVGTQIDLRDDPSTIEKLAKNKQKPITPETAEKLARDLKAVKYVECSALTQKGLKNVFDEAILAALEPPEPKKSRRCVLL

With “HA-Cdc42(G12V) (from UniProt P60953 1-191)” the binding (YFP-Tuba) was “binds” and the binding (V5-Par6A (wild type)) was “binds”.

— paper PMC6224091
